tested on: human hepatoma cell line HepG2; experiment: MTS based cytotoxicity assay (counter-screen for selectivity); format: cell-based; settings: selectivity index, HepG2 versus Pf
Description: Selectivity was determined by counter-screening against human hepatoma cell line HepG2 in a MTS (3-(4,5-Dimethylthiazol-2-yl)-5-(3-carboxymethoxyphenyl)-2-(4-sulfophenyl)-2H-tetrazolium) based cytotoxicity assay (CellTiter 96® Aqueous One, Promega, Madison, WI) ([Riss et al., 2004]). Briefly, microtiter plates were seeded with 1,500 cells per well in a 384 well plate and incubated for 24 h at 37°C in 5% CO2/95% air atmosphere. The next day, compounds were added at seven different serially diluted concentrations starting at 25 µM d incubated for additional 48 h at stated conditions. MTS solution was next added to each well, incubated for additional 3 h at 37°C, and absorbance was read at 490 nm using BioTek Synergy neo 2 plate reader. Untreated cells served as control. Curve fitting was performed using GraphPad Prism and EC50 value was determined.

Row | SMILES | Toxicity SI
1 | Cc1cc(C)n(Cc2c(C(=O)N3CCC4(CCCCOC[C@@H]5CCCN5C(=O)c5cccc(c5)OC4)CC3)noc2C)n1 [DC-5921, CC1=NN(CC2=C(C)ON=C2C(=O)N2CCC3(CC2)CCCCOC[C@@H]2CCCN2C(=O)C2=CC(OC3)=CC=C2)C(C)=C1] | >40
2 | CCc1nc2ccccc2c(C(=O)N2CCC3(CCCCOCCNC(=O)c4ccccc4OC3)CC2)c1C [DC-5931, CCC1=NC2=C(C=CC=C2)C(C(=O)N2CCC3(CC2)CCCCOCCNC(=O)C2=C(OC3)C=CC=C2)=C1C] | >40
3 | CC(C)C[C@@H](N)C(=O)N1CCC2(CCCCCc3ccccc3OCCN(C)C2=O)CC1 [DC-9236, CC(C)C[C@@H](N)C(=O)N1CCC2(CC1)CCCCCC1=C(OCCN(C)C2=O)C=CC=C1] | 15.9
4 | CCC1C2=NC(Cc3ccccc3)=C(O2)N(Cc2ccccc2)Cc2cn(nn2)CCCCN1Cc1ccccc1OCCN(C)C (centres unmarked) [DC-9237, CCC1N(CC2=CC=CC=C2OCCN(C)C)CCCCN2C=C(CN(CC3=CC=CC=C3)C3=C(CC4=CC=CC=C4)N=C1O3)N=N2] | 35.3
5 | CN1CCOc2ccccc2CCCCCC2(CCN(C(=O)[C@H](N)c3ccccc3)CC2)C1=O [DC-9239, CN1CCOC2=C(CCCCCC3(CCN(CC3)C(=O)[C@H](N)C3=CC=CC=C3)C1=O)C=CC=C2] | 25
